At least one read-out could not be matched to a standard name with certainty.
Test: Iloprost recovery from dried blood collection tubes by HPLC
Type: physicochemical

CC#CCC(C)[C@H](O)/C=C/[C@@H]1[C@H]2C/C(=C/CCCC(=O)O)C[C@H]2C[C@H]1O (some centres unmarked) [iloprost]
iloprost recovery from dried vials (K2EDTA 23 mM, iloprost 7.2 ug/mL, with (2-hydroxypropyl)-beta-cyclodextrin 0.36 mg/mL): recovered | iloprost recovery from dried vials (K2EDTA alone, no additive): No iloprost was recovered | iloprost recovery from dried vials (K2EDTA plus TRIS 3.6 mg/mL): No iloprost was recovered | iloprost recovery from dried vials (K2EDTA, iloprost, with albumin from bovine serum 0.36 mg/mL, data not shown): to a lesser extent | iloprost recovery after gamma irradiation of the tubes (data not shown): not affected

Reference: patent publication US20130209985A1, “SAMPLE COLLECTION DEVICES WITH BLOOD STABILIZING AGENTS” (priority 2012, published 2013)
